According to PMC7027236:
These are yes or no findings as the source states them, for the method shown. Binding seen in cells or lysates may run through a third protein. Some binding calls cover weakened binding; strength is not graded here.

Amino acid sequences for entries named in this document (tags omitted).
UniProt P46938: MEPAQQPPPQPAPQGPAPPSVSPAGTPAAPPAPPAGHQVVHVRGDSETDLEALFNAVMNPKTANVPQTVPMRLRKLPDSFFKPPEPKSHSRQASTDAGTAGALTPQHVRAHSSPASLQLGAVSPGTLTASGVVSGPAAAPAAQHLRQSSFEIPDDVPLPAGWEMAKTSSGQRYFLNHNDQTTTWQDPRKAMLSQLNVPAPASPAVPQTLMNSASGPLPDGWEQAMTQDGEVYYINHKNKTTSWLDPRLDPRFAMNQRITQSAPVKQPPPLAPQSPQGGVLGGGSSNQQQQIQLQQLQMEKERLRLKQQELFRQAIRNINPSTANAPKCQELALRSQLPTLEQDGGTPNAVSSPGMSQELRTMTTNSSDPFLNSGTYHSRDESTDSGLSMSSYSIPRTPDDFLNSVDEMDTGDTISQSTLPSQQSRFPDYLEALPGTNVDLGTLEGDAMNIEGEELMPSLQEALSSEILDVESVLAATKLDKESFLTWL
UniProt P30051: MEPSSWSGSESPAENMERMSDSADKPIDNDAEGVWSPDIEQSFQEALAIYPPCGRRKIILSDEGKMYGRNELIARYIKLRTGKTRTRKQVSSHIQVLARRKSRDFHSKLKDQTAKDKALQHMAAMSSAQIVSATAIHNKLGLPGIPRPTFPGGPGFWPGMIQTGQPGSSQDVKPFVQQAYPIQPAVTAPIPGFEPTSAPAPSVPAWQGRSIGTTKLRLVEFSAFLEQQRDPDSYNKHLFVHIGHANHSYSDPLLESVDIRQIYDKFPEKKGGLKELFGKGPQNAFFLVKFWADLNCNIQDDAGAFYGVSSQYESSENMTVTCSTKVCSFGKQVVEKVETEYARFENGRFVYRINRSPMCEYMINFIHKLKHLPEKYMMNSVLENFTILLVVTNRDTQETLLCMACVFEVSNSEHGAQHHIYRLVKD

Target: Yes-associated protein 1 (YAP1), mouse, endogenous in CAF cells (mouse (endogenous in CAF)) (UniProt P46938)
Assay: co-IP; lysate of mouse CAF cells; YAP1 or TEAD1 antibody overnight at 4 °C, protein A agarose magnetic beads, washed 3 times with lysis buffer; western blot with a YAP1 or TEAD1 antibody

binding: binds
Substance: TEA domain transcription factor 1 (TEAD1), mouse, endogenous in CAF cells (from UniProt P30051 1-426)
